In publication PMC10617209:
No constants are given. Whether binding was seen depends on the method and setting. Binding seen in cells or lysates may run through a third protein. Some entries that bind do so weakly or less than the wild type.

The chains behind the UniProt entries cited, without tags or fusion partners.
UniProt P40337: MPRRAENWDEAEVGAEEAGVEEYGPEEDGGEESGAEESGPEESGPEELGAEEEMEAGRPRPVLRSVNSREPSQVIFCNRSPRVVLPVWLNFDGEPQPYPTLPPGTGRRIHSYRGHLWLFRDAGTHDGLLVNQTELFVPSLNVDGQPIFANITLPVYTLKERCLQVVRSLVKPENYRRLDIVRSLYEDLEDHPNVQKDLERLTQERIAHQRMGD
UniProt P08050: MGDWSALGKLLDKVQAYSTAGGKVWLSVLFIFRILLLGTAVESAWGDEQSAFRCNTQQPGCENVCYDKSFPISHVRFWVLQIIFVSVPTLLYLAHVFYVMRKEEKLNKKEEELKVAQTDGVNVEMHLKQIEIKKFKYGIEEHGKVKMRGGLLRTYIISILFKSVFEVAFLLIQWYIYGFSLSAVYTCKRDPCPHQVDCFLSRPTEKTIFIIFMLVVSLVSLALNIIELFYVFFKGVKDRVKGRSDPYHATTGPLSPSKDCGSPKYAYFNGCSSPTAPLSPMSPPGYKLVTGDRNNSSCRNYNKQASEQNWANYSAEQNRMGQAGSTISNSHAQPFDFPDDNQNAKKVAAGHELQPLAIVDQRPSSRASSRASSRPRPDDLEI
UniProt P17302: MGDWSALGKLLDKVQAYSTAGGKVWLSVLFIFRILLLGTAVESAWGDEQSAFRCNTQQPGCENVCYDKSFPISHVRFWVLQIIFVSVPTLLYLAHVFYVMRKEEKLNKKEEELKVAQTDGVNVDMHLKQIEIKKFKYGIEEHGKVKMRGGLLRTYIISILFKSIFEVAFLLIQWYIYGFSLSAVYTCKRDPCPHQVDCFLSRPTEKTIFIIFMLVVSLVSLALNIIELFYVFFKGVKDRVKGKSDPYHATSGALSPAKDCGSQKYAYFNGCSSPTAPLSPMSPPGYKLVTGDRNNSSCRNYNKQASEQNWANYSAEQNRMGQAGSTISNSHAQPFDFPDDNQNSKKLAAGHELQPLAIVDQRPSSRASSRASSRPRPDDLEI

What was measured:
[1] = molecular target: T1, mixed lineage kinase domain-like protein (MLKL), rat, endogenous in thalamic VPN (rat (endogenous in Sprague-Dawley rat thalamus)) (UniProt D3ZKP6); experiment: co-IP; lysate of rat thalamic VPN, Sham and 2 weeks after dMCAO; antibody on Dynabeads, incubated with the extract at 4 °C for 2 h, washed thrice with PBST; Western blot
T1 sequence: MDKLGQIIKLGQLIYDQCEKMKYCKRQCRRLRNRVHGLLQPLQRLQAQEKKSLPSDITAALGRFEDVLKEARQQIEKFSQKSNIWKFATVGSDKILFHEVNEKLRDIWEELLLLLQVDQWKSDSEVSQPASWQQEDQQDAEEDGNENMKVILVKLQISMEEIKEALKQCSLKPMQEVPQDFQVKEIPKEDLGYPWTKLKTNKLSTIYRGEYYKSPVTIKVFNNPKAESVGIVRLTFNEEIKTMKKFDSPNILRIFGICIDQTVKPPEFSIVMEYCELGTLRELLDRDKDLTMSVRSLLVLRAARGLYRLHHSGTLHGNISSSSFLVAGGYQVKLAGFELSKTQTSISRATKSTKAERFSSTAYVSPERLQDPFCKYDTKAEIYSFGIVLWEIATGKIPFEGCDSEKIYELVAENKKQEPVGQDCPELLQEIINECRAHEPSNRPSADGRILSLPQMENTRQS

[2] = molecular target: human Von Hippel-Lindau (VHL), coding sequence in plasmid CMV-MCS-V5-SV40-neomycin (human) (UniProt P40337); experiment: co-IP; lysate of SH-SY5Y cells transfected with plasmids (MLKL WT or S454A, Cx43, VHL), without or with TSZ for 10 h; antibody on Dynabeads, 4 °C for 2 h, washed thrice with PBST; Western blot

Row | Substance | binding [1] | binding [2]
1 | connexin 43 (Cx43), rat, endogenous in thalamic VPN (from UniProt P08050 1-382) | binds | 
2 | human connexin 43 (Cx43, GJA1) (WT), full-length coding sequence in plasmid CMV-MCS-Myc-SV40-neomycin (from UniProt P17302 1-382) |  | binds
